Results published in PubChem BioAssay AID2284382 (EPA ToxCast).
The shares of active, inactive and inconclusive entries below differ from those in the screen. A potency beside an inconclusive call is a rough fit, not a confirmed value. The source made the active and inactive calls. How the source made its calls: active means hit-call score of the fitted dose curve at least 0.9, where 1 is the maximum; inconclusive means response in the unintended direction; inactive means score below 0.9.

Experiment: CCTE_Mundy_HCI_iCellGABA_NOG_NeuriteLength: CCTE's Neurite Outgrowth Assay in iCellGABA cells for Neurite Length, Mundy Lab
Protocol: CCTE_Mundy_HCI_iCellGABA_NOG is a multiplexed, cell-based-readout assay that uses iCell GABANeurons from FUJIFILM Cellular Dynamics, Inc. (FCDI), human GABAergic enriched neurons derived from induced pluripotent stem (iPS) cells, with measurements taken at 50.33 hours after chemical dosing in a microplate: 96-well plate.CCTE_Mundy_HCI_iCellGABA_NOG_NeuriteLength is one of four components of the CCTE_Mundy_HCI_iCellGABA_NOG assay. It measures neurite outgrowth related to neurite length using High Content Imaging of fluorescently labelled markers.Data from the assay component CCTE_Mundy_HCI_iCellGABA_NOG_NeuriteLength was analyzed at the endpoint CCTE_Mundy_HCI_iCellGABA_NOG_NeuriteLength in the positive analysis fitting direction relative to DMSO as the negative control and baseline of activity. Using a type of morphology reporter, loss-of-signal activity can be used to understand developmental effects.
Exposure starts 2 hours post-plating by adding 10 ul of the working solution to 90 ul of media in the wells for a 1/10 dilution. Forty-eight hours after chemical treatment cells are fixed by direct addition of 100 ul of warm (37C) Dulbecco's phosphate buffered saline (DPBS) fixative solution containing 8% paraformaldehyde, 8% sucrose, and 0.1% of 3 mg/ml Hoechst 33342 into each well. Primary antibodies are prepared by dilution in Immunocytochemical Staining Buffer (ISB), 10X Dulbecco's PBS, 0.1% Saponin, 5% Bovine Serum Albumin, 0.5% NaN3 (Sodium Azide) and betaIII-tubulin (rabbit anti-betaIII-tubulin, 1:800) followed by Alexa Fluor-488 secondary (1:500) to label neuronal cell bodies and neurites. A Cellomics ArrayScan VTi HCS Reader is used for automated image acquisition and analysis of neurite outgrowth.

With COP(=O)(NC(C)=O)SC (stereo unspecified) as the compound, how does the AC50 read?
Its AC50 is inconclusive: 50 µM.

For CCOC(=O)CC(SP(=S)(OC)OC)C(=O)OCC (stereo unspecified), which AC50 is on record?
The AC50 was active: 78.6 µM.

Which AC50 does the source give for CCOP(=O)(OCC)Oc1nc(Cl)c(Cl)cc1Cl here?
The AC50 was inconclusive: 0.0146 µM.

With CCOP(=S)(OCC)Oc1ccc2c(C)c(Cl)c(=O)oc2c1 as the compound, how does the AC50 read?
The AC50 was active: 58 µM.

Which AC50 does the source give for COP(N)(=O)SC (stereo unspecified) here?
Its AC50 is inconclusive: 2.96 µM.

For CCOP(=O)(OCC)Oc1cc(C)nc(C(C)C)n1, which AC50 is on record?
Its AC50 is inconclusive: 0.00466 µM.
